Among the data in paper PMC7862700 are binding signal values, retold here.

Chains of the proteins cited; added tags and fusions are not shown. Lines headed by an entry give the natural chain unless they say otherwise; changes in a name come on top.
UniProt Q01892: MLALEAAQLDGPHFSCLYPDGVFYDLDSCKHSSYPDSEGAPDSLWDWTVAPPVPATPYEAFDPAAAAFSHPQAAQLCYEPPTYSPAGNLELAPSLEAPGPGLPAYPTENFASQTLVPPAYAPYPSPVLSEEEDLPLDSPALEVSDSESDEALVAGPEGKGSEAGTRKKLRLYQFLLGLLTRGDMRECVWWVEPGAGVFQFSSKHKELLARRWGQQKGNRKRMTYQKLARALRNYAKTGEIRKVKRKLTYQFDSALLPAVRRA
UniProt P41161: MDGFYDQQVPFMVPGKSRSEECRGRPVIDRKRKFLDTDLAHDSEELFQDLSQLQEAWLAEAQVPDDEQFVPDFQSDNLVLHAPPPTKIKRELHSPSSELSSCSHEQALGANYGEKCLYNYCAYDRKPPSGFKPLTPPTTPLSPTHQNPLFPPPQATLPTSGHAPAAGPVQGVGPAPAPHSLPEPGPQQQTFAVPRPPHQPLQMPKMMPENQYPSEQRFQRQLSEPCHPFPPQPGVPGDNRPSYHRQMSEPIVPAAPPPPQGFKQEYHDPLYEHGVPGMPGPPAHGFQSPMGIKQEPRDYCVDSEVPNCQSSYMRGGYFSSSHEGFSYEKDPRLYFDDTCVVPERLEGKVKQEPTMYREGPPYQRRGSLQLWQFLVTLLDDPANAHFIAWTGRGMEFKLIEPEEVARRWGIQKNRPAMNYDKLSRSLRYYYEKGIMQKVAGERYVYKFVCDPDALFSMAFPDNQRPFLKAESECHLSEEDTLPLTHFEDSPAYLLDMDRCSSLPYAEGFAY
UniProt Q99607: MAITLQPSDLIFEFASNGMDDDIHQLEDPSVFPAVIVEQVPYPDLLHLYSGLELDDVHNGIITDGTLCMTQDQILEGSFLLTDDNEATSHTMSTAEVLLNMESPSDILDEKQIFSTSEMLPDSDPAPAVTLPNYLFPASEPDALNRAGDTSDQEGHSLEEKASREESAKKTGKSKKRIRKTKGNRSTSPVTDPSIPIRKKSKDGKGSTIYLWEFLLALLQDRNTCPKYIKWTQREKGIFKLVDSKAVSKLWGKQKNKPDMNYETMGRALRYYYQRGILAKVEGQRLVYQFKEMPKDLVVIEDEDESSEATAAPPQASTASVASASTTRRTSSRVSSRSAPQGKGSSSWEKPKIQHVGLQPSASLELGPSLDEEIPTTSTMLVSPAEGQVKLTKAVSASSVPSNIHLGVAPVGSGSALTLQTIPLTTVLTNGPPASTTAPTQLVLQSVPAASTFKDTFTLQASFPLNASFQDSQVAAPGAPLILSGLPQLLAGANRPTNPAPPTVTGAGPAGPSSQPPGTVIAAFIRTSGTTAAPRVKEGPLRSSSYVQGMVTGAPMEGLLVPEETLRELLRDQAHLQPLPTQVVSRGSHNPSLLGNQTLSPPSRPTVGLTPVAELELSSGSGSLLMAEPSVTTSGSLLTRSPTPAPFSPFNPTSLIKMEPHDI

The entries are a selection whose mix differs from that of the whole data set. At the low end of the ranking the order means little.

Targets include SPIB (UniProt Q01892); ETV5 (UniProt P41161); ELF4 (UniProt Q99607).
Holding throughout (assay): DAPPL (digital affinity profiling via proximity ligation, sequencing)
Holding throughout (settings): 10 mM Tris-HCl pH 7.5, 50 mM NaCl, 1 mM DTT, 4% glycerol, room temperature, 30 min; GST-TFs on glutathione beads, 16-mer random dsDNA library, 0.1% …; high values mean tight binding; double strand, one strand shown; scale: fold enrichment (6-mer frequency, TF over GST control)

Another assay addresses T1, FLI1 (UniProt Q01543).
T1 sequence: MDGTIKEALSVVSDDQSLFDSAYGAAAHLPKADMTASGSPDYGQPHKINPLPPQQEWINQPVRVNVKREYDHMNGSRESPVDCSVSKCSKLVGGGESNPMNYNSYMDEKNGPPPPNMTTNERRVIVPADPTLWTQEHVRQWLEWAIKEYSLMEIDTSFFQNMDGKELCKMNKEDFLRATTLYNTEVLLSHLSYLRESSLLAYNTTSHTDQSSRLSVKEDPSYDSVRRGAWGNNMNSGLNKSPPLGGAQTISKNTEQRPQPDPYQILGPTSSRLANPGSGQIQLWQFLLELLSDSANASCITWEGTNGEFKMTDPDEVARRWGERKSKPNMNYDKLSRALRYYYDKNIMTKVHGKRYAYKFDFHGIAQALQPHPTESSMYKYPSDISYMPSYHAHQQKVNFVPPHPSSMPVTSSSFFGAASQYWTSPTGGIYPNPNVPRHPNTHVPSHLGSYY

Another assay has as its target T2, EHF (UniProt Q9NZC4).
T2 sequence: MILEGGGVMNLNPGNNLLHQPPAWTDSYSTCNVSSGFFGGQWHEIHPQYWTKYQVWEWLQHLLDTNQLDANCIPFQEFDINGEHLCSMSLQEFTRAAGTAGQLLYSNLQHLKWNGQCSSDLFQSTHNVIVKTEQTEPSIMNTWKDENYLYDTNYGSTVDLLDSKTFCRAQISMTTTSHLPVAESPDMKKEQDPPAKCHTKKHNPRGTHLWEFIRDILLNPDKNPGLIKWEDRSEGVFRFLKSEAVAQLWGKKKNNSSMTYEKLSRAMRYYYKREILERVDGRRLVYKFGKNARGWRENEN

Another assay deals with T3, ETV2 (UniProt O00321).
T3 sequence: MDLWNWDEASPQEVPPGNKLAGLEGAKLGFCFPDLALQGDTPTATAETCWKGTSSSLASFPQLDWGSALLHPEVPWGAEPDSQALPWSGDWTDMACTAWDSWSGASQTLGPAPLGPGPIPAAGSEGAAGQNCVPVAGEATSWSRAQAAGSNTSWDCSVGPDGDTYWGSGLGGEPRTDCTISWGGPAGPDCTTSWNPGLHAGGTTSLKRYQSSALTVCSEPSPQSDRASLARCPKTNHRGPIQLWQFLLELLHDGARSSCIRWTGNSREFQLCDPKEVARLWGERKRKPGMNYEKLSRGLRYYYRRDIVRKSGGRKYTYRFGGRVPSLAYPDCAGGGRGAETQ

The next assay addresses T4, ETV3L (UniProt Q6ZN32).
T4 sequence: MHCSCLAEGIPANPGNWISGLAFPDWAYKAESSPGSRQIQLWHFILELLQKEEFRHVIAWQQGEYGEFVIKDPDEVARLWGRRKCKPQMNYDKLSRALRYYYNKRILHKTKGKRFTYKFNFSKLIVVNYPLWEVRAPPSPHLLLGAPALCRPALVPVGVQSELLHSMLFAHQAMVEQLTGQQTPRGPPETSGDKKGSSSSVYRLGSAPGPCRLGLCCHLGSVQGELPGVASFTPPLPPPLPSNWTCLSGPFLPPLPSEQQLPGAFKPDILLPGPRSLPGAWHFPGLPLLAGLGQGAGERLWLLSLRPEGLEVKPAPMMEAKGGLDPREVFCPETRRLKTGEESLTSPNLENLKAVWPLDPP

Consider AGTCGA, for which the binding signal with FLI1 came to 0.438; with EHF, 0.396; with SPIB, 0.419; in the assay with ETV5, 0.39; with ELF4, 0.415; in the assay with ETV2, 0.362. Further, the binding signal with ETV3L is 0.409.
Consider CACGGG, for which the binding signal came to 0.824 in the assay with FLI1; 0.829 in the assay with EHF; 0.772 with SPIB; 0.846 with ETV5; 0.842 in the assay with ELF4; 0.805 with ETV2. In addition, the binding signal with ETV3L is 0.737.
As to GTGGGC, the binding signal with FLI1 was 0.761; in the assay with EHF, 0.756; with SPIB, 0.708; with ETV5, 0.708; with ELF4, 0.684; in the assay with ETV2, 0.629. The same sequence returned a binding signal in the assay with ETV3L of 0.701.
Take AGTGAT: the binding signal was 0.861 in the assay with FLI1; 0.895 in the assay with EHF; 0.989 with SPIB; 0.9 with ETV5; 0.884 with ELF4; 0.828 in the assay with ETV2. The sequence further had a binding signal with ETV3L of 0.861.
For GCCAGT, the binding signal with FLI1 was 0.322; with EHF, 0.314; in the assay with SPIB it was 0.323; with ETV5 it was 0.303; with ELF4, 0.326; with ETV2 it was 0.272. The same sequence returned a binding signal with ETV3L of 0.304.
As for TGCGTG, the binding signal turned out to be 0.655 with FLI1; 0.608 in the assay with EHF; 0.575 in the assay with SPIB; 0.643 with ETV5; 0.651 with ELF4; 0.737 with ETV2. In the assay with ETV3L, this sequence gave a binding signal of 0.639.
Consider GGACGG, for which the binding signal in the assay with FLI1 worked out at 0.511; in the assay with EHF it was 0.529; in the assay with SPIB, 0.509; with ETV5 it was 0.554; with ELF4 it was 0.443; with ETV2 it was 0.524. Moreover, in the assay with ETV3L, the binding signal worked out at 0.527.
Turning to GTAAGG, the binding signal was 0.821 in the assay with FLI1; 0.817 with EHF; 0.763 with SPIB; 0.766 with ETV5; 0.721 with ELF4; 0.732 with ETV2. In the assay with ETV3L, this sequence registered a binding signal of 0.763.
With CATGGA, the binding signal with FLI1 worked out at 0.899; with EHF, 0.96; with SPIB, 0.858; in the assay with ETV5 it was 0.891; in the assay with ELF4 it was 0.93; with ETV2, 0.804. Further, in the assay with ETV3L, the binding signal is 0.918.
GTGCGT: the binding signal with FLI1 was 0.613; with EHF, 0.613; with SPIB, 0.588; with ETV5 it was 0.59; with ELF4, 0.601; in the assay with ETV2 it was 0.74. In addition, the binding signal in the assay with ETV3L was determined as 0.598.
Regarding GGCGAT, the binding signal in the assay with FLI1 was determined as 0.805; with EHF, 0.807; with SPIB, 0.792; with ETV5, 0.782; with ELF4, 0.804; in the assay with ETV2, 0.93. Besides, the binding signal in the assay with ETV3L amounted to 0.741.
For the sequence GTGTCA, the binding signal was found to be 0.813 with FLI1; 0.822 with EHF; 0.874 with SPIB; 0.859 in the assay with ETV5; 0.847 with ELF4; 0.909 in the assay with ETV2. This sequence also gave a binding signal with ETV3L of 0.786.
With GATTGT, the binding signal was 0.885 in the assay with FLI1; 0.718 in the assay with EHF; 0.88 with SPIB; 0.837 with ETV5; 0.859 with ELF4; 0.844 with ETV2. The sequence also had a binding signal in the assay with ETV3L of 0.893.
For GGGGAA, the binding signal in the assay with FLI1 worked out at 0.754; with EHF, 0.767; with SPIB, 0.737; with ETV5 it was 0.735; with ELF4, 0.684; in the assay with ETV2, 0.761. In addition, in the assay with ETV3L, the binding signal was found to be 0.749.
For the sequence GAGAAC, the binding signal with FLI1 was 0.394; in the assay with EHF, 0.429; with SPIB, 0.426; with ETV5, 0.391; with ELF4, 0.42; with ETV2, 0.431. Moreover, the binding signal with ETV3L is 0.43.
Turning to GAGCCG, the binding signal with FLI1 was 0.469; with EHF it was 0.441; with SPIB it was 0.428; with ETV5, 0.376; with ELF4 it was 0.411; with ETV2, 0.381. In addition, the binding signal with ETV3L was 0.375.
For the sequence TGAGCC, the binding signal with FLI1 is 0.856; with EHF, 0.84; with SPIB, 0.803; with ETV5 it was 0.829; with ELF4 it was 0.843; in the assay with ETV2, 0.898. Also, the binding signal with ETV3L came out at 0.758.
Regarding GCAAGA, the binding signal with FLI1 was determined as 0.845; with EHF it was 0.842; with SPIB, 0.782; with ETV5, 0.867; with ELF4 it was 0.848; with ETV2, 0.766. In the assay with ETV3L, this sequence yielded a binding signal of 0.867.
In the case of CGGAGT, the binding signal is 0.339 with FLI1; 0.33 with EHF; 0.333 with SPIB; 0.312 with ETV5; 0.305 in the assay with ELF4; 0.368 with ETV2. The sequence also displayed a binding signal in the assay with ETV3L of 0.362.
Turning to GGTTGA, the binding signal with FLI1 is 0.716; in the assay with EHF it was 0.8; in the assay with SPIB, 0.748; with ETV5, 0.757; with ELF4 it was 0.768; in the assay with ETV2, 0.846. The sequence further displayed a binding signal in the assay with ETV3L of 0.8.
Consider ATCGTA, for which the binding signal is 0.878 with FLI1; 0.922 with EHF; 0.846 with SPIB; 0.919 with ETV5; 0.884 with ELF4; 0.846 with ETV2. Besides, in the assay with ETV3L, the binding signal amounted to 0.833.
TCAGTC: the binding signal with FLI1 was determined as 0.671; in the assay with EHF, 0.58; in the assay with SPIB, 0.593; with ETV5 it was 0.58; in the assay with ELF4, 0.65; in the assay with ETV2, 0.487. This sequence displayed a binding signal with ETV3L of 0.606.
As to CAGCCG, the binding signal with FLI1 came to 0.66; with EHF, 0.693; with SPIB, 0.633; with ETV5, 0.61; with ELF4, 0.687; in the assay with ETV2 it was 0.603. The sequence further registered a binding signal with ETV3L of 0.69.
For GCGAGT, the binding signal is 0.592 in the assay with FLI1; 0.574 with EHF; 0.558 with SPIB; 0.541 with ETV5; 0.577 in the assay with ELF4; 0.624 with ETV2. In the assay with ETV3L, this sequence returned a binding signal of 0.529.
Regarding GGATAG, the binding signal with FLI1 came out at 0.701; with EHF, 0.759; with SPIB, 0.699; in the assay with ETV5, 0.741; in the assay with ELF4, 0.66; in the assay with ETV2 it was 0.68. Moreover, the binding signal with ETV3L stood at 0.761.
As for ACAGTG, the binding signal came out at 0.542 with FLI1; 0.5 with EHF; 0.487 in the assay with SPIB; 0.509 with ETV5; 0.505 with ELF4; 0.508 with ETV2. The sequence also displayed a binding signal with ETV3L of 0.519.
AGGGCG: the binding signal with FLI1 is 0.576; with EHF it was 0.551; with SPIB it was 0.566; with ETV5, 0.546; in the assay with ELF4 it was 0.569; with ETV2, 0.642. The same sequence displayed a binding signal with ETV3L of 0.537.
As for CGCAGT, the binding signal in the assay with FLI1 is 0.769; with EHF, 0.753; with SPIB, 0.788; with ETV5 it was 0.782; with ELF4, 0.757; in the assay with ETV2 it was 0.917. The same sequence came in with a binding signal with ETV3L of 0.743.
In the case of CAGGTC, the binding signal was 0.69 in the assay with FLI1; 0.605 with EHF; 0.693 with SPIB; 0.658 with ETV5; 0.648 with ELF4; 0.695 with ETV2. Besides, the binding signal with ETV3L stood at 0.722.
For the sequence AGGCCA, the binding signal with FLI1 was found to be 0.633; in the assay with EHF, 0.712; with SPIB, 0.607; with ETV5, 0.65; in the assay with ELF4 it was 0.676; with ETV2, 0.679. In the assay with ETV3L, this sequence displayed a binding signal of 0.642.
